Key:
Experiment in all cases: cells
Design in all cases: species or system Ba/F3 stable lines
Details in all cases: Mus musculus, BaF3, 72 h, read-out: Midostaurin / (PKC412)
[1] = system: BaF3-FLT3-ITD-D835N
[2] = system: BaF3-FLT3-D835H
[3] = system: BaF3-FLT3-MOLM-ITD
[4] = system: BaF3-tel-FLT3-K663Q
[5] = system: BaF3-FLT3-ITD-G697R
[6] = system: BaF3-FLT3-D835V
[7] = system: BaF3-FLT3-ITD-D835Y
[8] = system: BaF3-FLT3-ITD-F691I
[9] = system: BaF3-FLT3-ITD-D835V
[10] = system: BaF3-tel-FLT3
[11] = system: BaF3-tel-FLT3-D835Y
[12] = system: BaF3-FLT3-ITD-D835I

Work on CO[C@@H]1[C@H](N(C)C(=O)c2ccccc2)C[C@H]2O[C@]1(C)n1c3ccccc3c3c4c(c5c6ccccc6n2c5c31)C(=O)NC4 [Midostaurin] yielded an IC50 [1] of 6.5 nM, an IC50 [2] of 6.6 nM and an IC50 [3] of 4 nM. It also gave an IC50 [4] of 102 nM, an IC50 [5] of 116 nM and an IC50 [6] of 3.3 nM. The IC50 [7] was 6.4 nM, the IC50 [8] was 41.9 nM and the IC50 [9] was 3.8 nM. The IC50 [10] was 14.4 nM, the IC50 [11] was 1 nM and the IC50 [12] was 3.5 nM.

Reference: PMC7125355 (Translational Oncology, 2020)
